According to the supplement of paper PMC10849652:
Some of the results follow.

Chains of the proteins cited; added tags and fusions are not shown. Lines headed by an entry give the natural chain unless they say otherwise; changes in a name come on top.
UniProt P15923: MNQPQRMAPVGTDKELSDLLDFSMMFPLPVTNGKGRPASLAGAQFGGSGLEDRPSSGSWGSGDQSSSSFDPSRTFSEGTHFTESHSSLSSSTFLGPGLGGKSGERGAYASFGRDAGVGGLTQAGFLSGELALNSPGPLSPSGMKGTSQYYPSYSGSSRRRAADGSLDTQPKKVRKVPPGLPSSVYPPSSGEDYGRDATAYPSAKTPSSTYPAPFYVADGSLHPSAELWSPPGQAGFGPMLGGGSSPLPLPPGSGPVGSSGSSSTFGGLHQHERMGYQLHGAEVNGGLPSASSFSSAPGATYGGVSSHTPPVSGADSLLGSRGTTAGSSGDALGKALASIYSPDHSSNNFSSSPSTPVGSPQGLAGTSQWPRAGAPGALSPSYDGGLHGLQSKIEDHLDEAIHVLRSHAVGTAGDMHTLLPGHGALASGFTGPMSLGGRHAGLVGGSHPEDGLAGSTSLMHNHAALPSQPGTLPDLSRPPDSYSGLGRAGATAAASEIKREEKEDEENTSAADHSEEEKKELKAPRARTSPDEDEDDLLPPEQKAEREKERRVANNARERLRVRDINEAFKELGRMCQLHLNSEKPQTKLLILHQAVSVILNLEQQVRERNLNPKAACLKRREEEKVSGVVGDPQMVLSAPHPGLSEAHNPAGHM
UniProt Q6N022: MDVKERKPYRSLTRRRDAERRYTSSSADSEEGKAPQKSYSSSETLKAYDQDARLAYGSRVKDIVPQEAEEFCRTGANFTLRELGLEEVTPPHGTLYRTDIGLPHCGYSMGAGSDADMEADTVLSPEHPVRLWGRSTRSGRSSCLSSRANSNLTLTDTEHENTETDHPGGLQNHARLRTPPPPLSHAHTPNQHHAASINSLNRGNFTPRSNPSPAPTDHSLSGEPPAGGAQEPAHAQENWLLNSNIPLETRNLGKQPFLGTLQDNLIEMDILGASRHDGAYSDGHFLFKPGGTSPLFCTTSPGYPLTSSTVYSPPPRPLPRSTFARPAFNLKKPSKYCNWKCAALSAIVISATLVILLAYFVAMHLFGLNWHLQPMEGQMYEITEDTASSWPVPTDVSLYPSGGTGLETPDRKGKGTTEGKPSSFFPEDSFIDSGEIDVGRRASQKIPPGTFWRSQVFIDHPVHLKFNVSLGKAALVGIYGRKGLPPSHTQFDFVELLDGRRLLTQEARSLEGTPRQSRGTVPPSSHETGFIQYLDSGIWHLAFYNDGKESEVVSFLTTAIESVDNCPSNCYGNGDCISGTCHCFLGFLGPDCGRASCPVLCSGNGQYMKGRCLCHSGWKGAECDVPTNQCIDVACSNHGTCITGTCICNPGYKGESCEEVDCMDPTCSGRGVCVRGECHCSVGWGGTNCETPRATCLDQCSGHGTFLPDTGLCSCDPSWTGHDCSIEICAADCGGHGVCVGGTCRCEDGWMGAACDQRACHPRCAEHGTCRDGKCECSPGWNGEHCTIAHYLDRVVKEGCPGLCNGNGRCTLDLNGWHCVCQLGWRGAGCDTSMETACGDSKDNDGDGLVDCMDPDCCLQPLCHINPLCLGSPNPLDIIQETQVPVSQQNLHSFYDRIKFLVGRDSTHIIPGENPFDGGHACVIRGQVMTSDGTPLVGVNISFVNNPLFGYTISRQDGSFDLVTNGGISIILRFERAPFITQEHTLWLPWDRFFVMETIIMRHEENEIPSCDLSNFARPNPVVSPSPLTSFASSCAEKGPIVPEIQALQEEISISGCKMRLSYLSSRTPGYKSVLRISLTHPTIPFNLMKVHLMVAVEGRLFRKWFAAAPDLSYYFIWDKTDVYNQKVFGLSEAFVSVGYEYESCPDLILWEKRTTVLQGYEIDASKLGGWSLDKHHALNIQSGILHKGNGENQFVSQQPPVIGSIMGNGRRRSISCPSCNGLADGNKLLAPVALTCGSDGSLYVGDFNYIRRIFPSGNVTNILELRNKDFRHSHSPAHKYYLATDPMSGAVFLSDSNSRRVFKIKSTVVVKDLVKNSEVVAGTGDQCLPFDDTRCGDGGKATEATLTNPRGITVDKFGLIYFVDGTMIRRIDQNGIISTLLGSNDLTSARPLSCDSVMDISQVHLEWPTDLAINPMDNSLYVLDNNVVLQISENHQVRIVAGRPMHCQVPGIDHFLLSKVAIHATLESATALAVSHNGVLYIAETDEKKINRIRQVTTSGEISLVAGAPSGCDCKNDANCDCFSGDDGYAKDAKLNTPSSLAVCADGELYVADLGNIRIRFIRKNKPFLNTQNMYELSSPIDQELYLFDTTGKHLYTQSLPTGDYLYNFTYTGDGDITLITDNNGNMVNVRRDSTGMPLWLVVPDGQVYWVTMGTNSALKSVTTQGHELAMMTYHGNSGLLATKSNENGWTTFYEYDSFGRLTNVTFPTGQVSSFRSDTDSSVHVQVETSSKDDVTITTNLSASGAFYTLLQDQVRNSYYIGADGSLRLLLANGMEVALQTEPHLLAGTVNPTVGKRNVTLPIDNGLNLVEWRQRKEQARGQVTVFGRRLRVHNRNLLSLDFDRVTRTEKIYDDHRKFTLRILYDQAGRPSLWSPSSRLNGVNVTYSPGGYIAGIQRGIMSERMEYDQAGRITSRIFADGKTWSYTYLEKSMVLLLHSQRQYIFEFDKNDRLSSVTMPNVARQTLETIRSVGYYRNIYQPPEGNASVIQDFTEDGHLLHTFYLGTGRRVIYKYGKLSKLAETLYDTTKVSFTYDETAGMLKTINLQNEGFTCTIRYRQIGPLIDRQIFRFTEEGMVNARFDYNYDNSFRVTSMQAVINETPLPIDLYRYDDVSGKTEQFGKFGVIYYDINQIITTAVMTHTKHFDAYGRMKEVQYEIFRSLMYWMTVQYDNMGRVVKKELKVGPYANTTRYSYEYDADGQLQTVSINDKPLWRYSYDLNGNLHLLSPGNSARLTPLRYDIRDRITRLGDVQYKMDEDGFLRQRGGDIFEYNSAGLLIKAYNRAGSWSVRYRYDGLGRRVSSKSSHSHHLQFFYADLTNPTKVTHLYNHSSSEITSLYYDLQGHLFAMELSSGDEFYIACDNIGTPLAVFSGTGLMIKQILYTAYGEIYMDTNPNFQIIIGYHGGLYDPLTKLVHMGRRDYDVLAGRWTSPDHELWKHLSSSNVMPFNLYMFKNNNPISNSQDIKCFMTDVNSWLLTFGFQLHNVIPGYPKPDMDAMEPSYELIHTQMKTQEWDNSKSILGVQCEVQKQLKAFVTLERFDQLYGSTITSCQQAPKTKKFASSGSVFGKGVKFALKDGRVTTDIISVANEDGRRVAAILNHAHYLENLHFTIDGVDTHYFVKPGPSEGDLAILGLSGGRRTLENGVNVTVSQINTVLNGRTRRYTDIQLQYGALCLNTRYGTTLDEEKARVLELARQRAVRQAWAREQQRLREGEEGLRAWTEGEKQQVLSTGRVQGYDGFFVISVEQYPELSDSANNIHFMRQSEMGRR
UniProt P21731: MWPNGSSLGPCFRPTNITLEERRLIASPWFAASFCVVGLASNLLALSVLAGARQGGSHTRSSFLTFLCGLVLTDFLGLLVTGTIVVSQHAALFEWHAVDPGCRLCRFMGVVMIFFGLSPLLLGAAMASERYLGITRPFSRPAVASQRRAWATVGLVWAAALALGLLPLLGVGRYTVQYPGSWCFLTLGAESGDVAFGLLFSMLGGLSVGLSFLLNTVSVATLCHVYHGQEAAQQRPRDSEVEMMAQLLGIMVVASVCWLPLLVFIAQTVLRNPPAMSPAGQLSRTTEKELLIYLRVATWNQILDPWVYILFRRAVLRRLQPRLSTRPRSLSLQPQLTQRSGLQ
UniProt Q86WV5: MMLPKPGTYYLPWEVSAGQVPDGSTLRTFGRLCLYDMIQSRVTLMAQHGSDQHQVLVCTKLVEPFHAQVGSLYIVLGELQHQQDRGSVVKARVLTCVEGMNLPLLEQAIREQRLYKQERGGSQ
UniProt Q15560: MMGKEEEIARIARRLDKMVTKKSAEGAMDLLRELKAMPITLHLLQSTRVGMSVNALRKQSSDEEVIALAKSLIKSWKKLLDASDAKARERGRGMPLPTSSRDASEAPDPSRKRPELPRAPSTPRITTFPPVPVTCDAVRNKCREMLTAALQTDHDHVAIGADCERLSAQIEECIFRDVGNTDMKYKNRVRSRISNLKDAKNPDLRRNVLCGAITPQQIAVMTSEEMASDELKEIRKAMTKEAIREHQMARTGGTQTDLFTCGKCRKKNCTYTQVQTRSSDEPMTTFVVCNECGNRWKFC
UniProt O95455: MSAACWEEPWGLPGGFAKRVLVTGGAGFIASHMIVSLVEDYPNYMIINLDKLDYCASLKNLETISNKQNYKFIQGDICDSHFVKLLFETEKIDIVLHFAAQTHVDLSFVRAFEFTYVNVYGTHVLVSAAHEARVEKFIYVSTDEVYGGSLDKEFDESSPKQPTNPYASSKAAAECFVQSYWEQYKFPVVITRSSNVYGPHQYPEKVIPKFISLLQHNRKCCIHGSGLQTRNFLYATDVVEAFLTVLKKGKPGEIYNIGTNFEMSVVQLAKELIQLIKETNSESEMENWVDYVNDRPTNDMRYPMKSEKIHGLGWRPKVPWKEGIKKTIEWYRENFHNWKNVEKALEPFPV
UniProt Q9HCD6: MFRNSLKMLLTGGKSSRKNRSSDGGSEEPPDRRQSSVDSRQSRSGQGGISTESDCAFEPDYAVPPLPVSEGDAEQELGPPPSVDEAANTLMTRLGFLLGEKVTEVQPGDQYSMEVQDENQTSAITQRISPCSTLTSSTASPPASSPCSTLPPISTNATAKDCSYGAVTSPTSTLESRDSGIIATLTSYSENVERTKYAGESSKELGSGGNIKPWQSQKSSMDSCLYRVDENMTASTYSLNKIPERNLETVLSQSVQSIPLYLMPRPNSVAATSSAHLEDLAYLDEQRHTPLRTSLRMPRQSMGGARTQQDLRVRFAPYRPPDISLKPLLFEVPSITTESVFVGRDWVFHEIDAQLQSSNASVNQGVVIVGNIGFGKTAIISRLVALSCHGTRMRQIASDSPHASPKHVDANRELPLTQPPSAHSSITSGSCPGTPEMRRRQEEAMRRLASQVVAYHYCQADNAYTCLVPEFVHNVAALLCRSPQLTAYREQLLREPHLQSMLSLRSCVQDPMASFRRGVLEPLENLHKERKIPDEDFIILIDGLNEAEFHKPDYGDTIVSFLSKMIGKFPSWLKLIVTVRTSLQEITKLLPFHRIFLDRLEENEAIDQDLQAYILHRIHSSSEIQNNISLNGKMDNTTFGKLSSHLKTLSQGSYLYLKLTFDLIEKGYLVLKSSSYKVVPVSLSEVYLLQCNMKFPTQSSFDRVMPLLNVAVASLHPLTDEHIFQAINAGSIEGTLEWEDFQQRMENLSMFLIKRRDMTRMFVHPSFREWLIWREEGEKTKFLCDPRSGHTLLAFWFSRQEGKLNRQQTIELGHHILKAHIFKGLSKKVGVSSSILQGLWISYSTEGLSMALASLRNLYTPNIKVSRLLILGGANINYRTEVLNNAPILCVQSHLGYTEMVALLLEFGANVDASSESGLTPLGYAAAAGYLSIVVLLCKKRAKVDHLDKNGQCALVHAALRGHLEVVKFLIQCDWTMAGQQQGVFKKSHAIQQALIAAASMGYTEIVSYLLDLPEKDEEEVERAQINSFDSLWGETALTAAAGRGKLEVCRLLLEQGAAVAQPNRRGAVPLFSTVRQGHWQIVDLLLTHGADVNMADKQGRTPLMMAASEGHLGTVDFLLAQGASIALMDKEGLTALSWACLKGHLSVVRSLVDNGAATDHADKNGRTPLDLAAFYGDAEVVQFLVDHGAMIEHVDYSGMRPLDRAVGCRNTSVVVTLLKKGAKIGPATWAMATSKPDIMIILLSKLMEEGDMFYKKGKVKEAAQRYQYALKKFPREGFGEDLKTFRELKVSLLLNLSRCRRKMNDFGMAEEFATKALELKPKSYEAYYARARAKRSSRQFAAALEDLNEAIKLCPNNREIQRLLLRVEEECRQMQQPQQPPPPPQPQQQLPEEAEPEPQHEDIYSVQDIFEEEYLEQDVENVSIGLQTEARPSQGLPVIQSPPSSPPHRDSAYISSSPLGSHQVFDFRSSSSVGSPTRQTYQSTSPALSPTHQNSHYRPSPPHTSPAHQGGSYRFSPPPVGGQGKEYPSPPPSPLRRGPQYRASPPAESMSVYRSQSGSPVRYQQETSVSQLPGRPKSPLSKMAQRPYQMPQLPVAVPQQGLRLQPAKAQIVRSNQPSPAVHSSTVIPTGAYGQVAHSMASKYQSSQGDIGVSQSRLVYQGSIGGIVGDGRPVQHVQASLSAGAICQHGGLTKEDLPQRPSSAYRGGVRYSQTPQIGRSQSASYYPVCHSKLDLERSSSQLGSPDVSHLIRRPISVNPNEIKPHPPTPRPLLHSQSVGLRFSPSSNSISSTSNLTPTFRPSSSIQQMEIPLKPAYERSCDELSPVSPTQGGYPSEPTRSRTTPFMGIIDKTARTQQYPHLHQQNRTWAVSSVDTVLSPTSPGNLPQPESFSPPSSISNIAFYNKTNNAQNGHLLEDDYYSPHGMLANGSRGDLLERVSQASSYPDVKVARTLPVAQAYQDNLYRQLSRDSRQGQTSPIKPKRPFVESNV

Key:
Test in all cases: log2 fold change, soluble protein after heating vs DMSO (PISA); higher = thermal stabilisation; K562 lysate, 10 uM; active = over 0.2 and 3.5 SD of the protein, either way, in both replicates (recomputed)
[1] = compound: CCCS(=O)(=O)Nc1ccc(F)c(C(=O)c2c[nH]c3ncc(Cl)cc23)c1F
How it was run: (§1)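 The values are log-two fold changes in thermal stability compared with solvent controls and come from duplicates. They were obtained by TMTpro 16plex LC-MS/MS, with channel sums equalised, on the supernatant after 21,000xg for 90 min. That supernatant came from crude K562 extract at 1 mg/mL protein treated with 10 μM compound for 30 min, heated for 3 min across 48°C-58°C, pooled and brought to 0.5% NP-40 at 4°C.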

[2] = compound: CC[C@@H]1C(=O)N(C)c2cnc(Nc3ccc(C(=O)NC4CCN(C)CC4)cc3OC)nc2N1C1CCCC1
How it was run: as §1

volasertib = compound: CC[C@@H]1C(=O)N(C)c2cnc(Nc3ccc(C(=O)N[C@H]4CC[C@H](N5CCN(CC6CC6)CC5)CC4)cc3OC)nc2N1C(C)C [volasertib]
How it was run: as §1

[3] = compound: CCn1c(C(=O)N(C2CC2)C2CC2)cc2c3c(ncn3C)c(Nc3cc(C)n(C)n3)nc21
How it was run: as §1

saracatinib = compound: CN1CCN(CCOc2cc(OC3CCOCC3)c3c(Nc4c(Cl)ccc5c4OCO5)ncnc3c2)CC1 [saracatinib]
How it was run: as §1

sotrastaurin = compound: CN1CCN(c2nc(C3=C(c4c[nH]c5ccccc45)C(=O)NC3=O)c3ccccc3n2)CC1 [sotrastaurin]
How it was run: as §1

Tubastatin A = compound: CN1CCc2c(c3ccccc3n2Cc2ccc(C(=O)NO)cc2)C1 [Tubastatin A]
How it was run: as §1

[4] = compound: CNC(=O)C1=CC=CC=C1NC2=NC(=NC=C2Cl)NC3=C(C=C(C=C3)N4CCOCC4)OC
How it was run: as §1

[5] = compound: CNc1nc(-c2ccc3c(N)n[nH]c3c2)cc(N2C[C@@H](C(=O)NC3CCCCC3)CC[C@H]2C)n1
How it was run: as §1

encorafenib = compound: COC(=O)N[C@@H](C)CNc1nccc(-c2cn(C(C)C)nc2-c2cc(Cl)cc(NS(C)(=O)=O)c2F)n1 [encorafenib]
How it was run: as §1

[6] = compound: COC(=O)[C@H](CCSC)NC(=O)C1=C(C=C(C=C1)NC[C@H](CS)N)C2=CC=CC=C2
How it was run: as §1

alisertib = compound: COc1cc(Nc2ncc3c(n2)-c2ccc(Cl)cc2C(c2c(F)cccc2OC)=NC3)ccc1C(=O)O [alisertib]
How it was run: as §1

[7] = compound: COc1cc2nc(-c3cc(F)ccc3O)nc(N[C@@H]3CNC[C@H]3C(C)(C)O)c2cc1OC
How it was run: as §1

gefitinib = compound: COc1cc2ncnc(Nc3ccc(F)c(Cl)c3)c2cc1OCCCN1CCOCC1 [gefitinib]
How it was run: as §1

[8] = compound: CCn1cc(-c2ccnc3[nH]c(-c4cccc(CN(C)C)c4)cc23)c(-c2ccc(NC(=O)N(C)C)cc2)n1
How it was run: as §1

[9] = compound: CN1CCC(CNc2ccc3ncc(-c4cccc(OC(F)(F)F)c4)n3n2)CC1
How it was run: as §1

alvocidib = compound: CN1CC[C@H](c2c(O)cc(O)c3c(=O)cc(-c4ccccc4Cl)oc23)[C@H](O)C1 [alvocidib]
How it was run: as §1

barasertib = compound: CCN(CCCOc1ccc2c(Nc3cc(CC(=O)Nc4cccc(F)c4)[nH]n3)ncnc2c1)CCOP(=O)(O)O [barasertib]
How it was run: as §1

Measured: log2 fold change

TEDC1 (UniProt Q86SX3)
inactive: [1] 0.103 | [2] 0.106 | volasertib -0.041 | [3] 0.019 | saracatinib -0.02 | sotrastaurin -0.037 | Tubastatin A -0.254 | [4] 0.038 | [5] 0.051 | encorafenib 0.094 | [6] 0.047 | alisertib -0.019 | [7] -0.008 | gefitinib 0.047

TAZ (UniProt Q16635)
inactive: [1] 0.026 | volasertib 0.007 | [8] -0.125 | [9] -0.125 | sotrastaurin -0.117 | alvocidib 0.093 | [4] 0.187 | [7] 0.006

TBCA (UniProt E5RHG6)
inactive: [3] -0.187 | sotrastaurin 0.09 | Tubastatin A 0.102 | [4] 0.014

TCF3 isoform 2 (UniProt P15923)
inactive: [3] 0.065 | sotrastaurin 0.043 | Tubastatin A 0.055 | [4] 0.214

TCN1 (UniProt P20061)
inactive: barasertib 0.168 | [2] 0.391 | [3] 0.013 | [8] 0.167 | [9] -0.074 | sotrastaurin 0.015 | alvocidib -0.057 | Tubastatin A 0.579 | [4] -0.252 | encorafenib -0.151 | [6] 0.042 | alisertib -0.003 | gefitinib 0.018

TEAD4 (UniProt Q15561)
inactive: barasertib 0.097 | [4] 0.048

TENM4 (UniProt Q6N022)
inactive: [1] -0.205 | barasertib 0.104 | volasertib -0.069 | [9] -0.257 | sotrastaurin 0 | alvocidib 0.03 | [7] 0.024
active: [8] 0.534

TEAD3 (UniProt Q99594)
inactive: [2] -0.249 | [3] -0.018 | saracatinib 0.08 | sotrastaurin -0.009 | Tubastatin A -0.152 | [4] 0.104 | [5] 0.166 | encorafenib 0.036 | [6] 0.322

TBXA2R (UniProt P21731)
inactive: barasertib -0.007 | [3] -0.045 | [8] -0.077 | [9] 0.012 | sotrastaurin 0.013 | alvocidib -0.046 | Tubastatin A 0.01 | [4] 0.013

TEDC2 (UniProt Q7L2K0)
inactive: [1] 0.109 | volasertib 0.151 | [8] 0.018 | [9] -0.033 | sotrastaurin -0.039 | alvocidib 0.063 | alisertib 0.046 | [7] -0.173 | gefitinib 0.014

TEN1 (UniProt Q86WV5)
inactive: alisertib -0.109 | gefitinib -0.098

TET2 (UniProt Q6N021)
inactive: barasertib -0.024 | [2] -0.04 | saracatinib -0.012 | sotrastaurin 0.229 | [4] -0.003 | [5] 0.046 | encorafenib -0.091 | [6] 0.182

TCEA2 (UniProt Q15560)
inactive: [2] -0.032 | [3] 0.131 | Tubastatin A -0.254 | encorafenib -0.029 | [6] 0.094

Two entries drawn at random from the list so far, as already listed:
TBXA2R (UniProt P21731)
inactive: barasertib -0.007 | [3] -0.045 | [8] -0.077 | [9] 0.012 | sotrastaurin 0.013 | alvocidib -0.046 | Tubastatin A 0.01 | [4] 0.013

TET2 (UniProt Q6N021)
inactive: barasertib -0.024 | [2] -0.04 | saracatinib -0.012 | sotrastaurin 0.229 | [4] -0.003 | [5] 0.046 | encorafenib -0.091 | [6] 0.182

(continued)

TGDS (UniProt O95455)
inactive: [1] 0.039 | barasertib -0.017 | volasertib -0.041 | [8] -0.09 | [9] -0.145 | sotrastaurin 0.111 | alvocidib -0.056 | alisertib 0.044 | [7] 0.078 | gefitinib 0.169

TCF20 (UniProt Q9UGU0)
inactive: [1] -0.106 | barasertib 0.084 | volasertib 0.006 | [8] -0.02 | [9] -0.031 | saracatinib 0.038 | sotrastaurin 0.086 | alvocidib -0.017 | [4] 0.01 | [7] 0.167
active: [5] 0.615

TCOF1 isoform 6 (UniProt Q13428)
inactive: [1] 0.036 | volasertib -0.153 | [3] 0.039 | saracatinib 0.088 | sotrastaurin -0.04 | Tubastatin A -0.164 | [4] 0.096 | [5] 0.009 | alisertib -0.059 | [7] 0.05 | gefitinib 0.058

TANC2 isoform 2 (UniProt Q9HCD6)
inactive: [3] 0.203 | [8] -0.084 | [9] -0.11 | saracatinib 0.142 | alvocidib -0.022 | Tubastatin A 0 | [4] -0.038 | [5] 0.235 | alisertib -0.171 | gefitinib 0.228
